Assay results as given in article PMC7904156.
These are yes or no findings as the source states them, for the method shown. Binding calls can cover weak binding; strength is not graded here. Sequences can lack the tags named with a protein. Values belong to the binder of their own block, whether it stands above or below them.

Amino acid sequences for entries named in this document (tags omitted). A change or cut given only in a name is not applied to a line headed by its entry.
UniProt Q9FYA2: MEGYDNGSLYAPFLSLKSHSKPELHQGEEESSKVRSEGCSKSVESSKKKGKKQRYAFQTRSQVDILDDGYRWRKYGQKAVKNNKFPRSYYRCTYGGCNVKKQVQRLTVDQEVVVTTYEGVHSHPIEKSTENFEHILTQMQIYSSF

What was measured:
[1] = target: WRKY75 WRKY domain mutant (in pGBKT7) (Arabidopsis thaliana) (UniProt Q9FYA2); test: two-hybrid; directed test: bait (pGBKT7) and prey (pGADT7) vectors co-transformed into yeast; growth on synthetic dropout medium lacking Leu, Trp, His and Ade
[2] = target: WRKY75 zinc finger domain mutant (in pGBKT7) (Arabidopsis thaliana) (UniProt Q9FYA2); test: as above

binding [1]: binds
binding [2]: binds
B1: JAZ8, full length, fused to the AD domain of pGADT7 (protein, UniProt Q8LBM2 1-131)
chain: MKLQQNCDLELRLFPTSYDSDSSDTTSVVESTSSGNPQPNEESQRITIFYNGKMCFSSDVTHLQARSIISIASREMKTKSSSNGSDPPNKSTSFHHNQLPNPKASMKKSLQSFLQKRKIRIQATSPYHSRR

binding [1]: no binding
binding [2]: no binding
B2: the 83 N-terminal residues of JAZ8 (containing the ZIM domain), fused to the AD domain of pGADT7 (domain or fragment, UniProt Q8LBM2 1-83)
chain: MKLQQNCDLELRLFPTSYDSDSSDTTSVVESTSSGNPQPNEESQRITIFYNGKMCFSSDVTHLQARSIISIASREMKTKSSSN
